In the supplement of paper PMC4604168 (melanoma cell lines):
This is one part of the list. Repeats are few or missing, and single values can be far off.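 The apoptosis fraction was the count of cleaved-PARP antibody-stained nuclei relative to all DNA-stained nuclei, imaged in 1,536-well plates. Screening doses were set so most cells survived, and baseline and induced cleaved-PARP levels vary greatly across cell lines.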

Tests used:
Test in all cases: cleaved PARP positive nuclei fraction relative to DMSO control; melanoma cells; higher = more apoptosis
Settings in all cases: library dose: low library concentration; 72 h
[1] = test system: MZ2-MEL
[2] = test system: MeWo
[3] = test system: RPMI7951
[4] = test system: RVH-421
[5] = test system: SkMel28
[6] = test system: SkMel2
[7] = test system: SkMel30
[8] = test system: SkMel5
[9] = test system: UACC257
[10] = test system: UACC62
[11] = test system: WM115
[12] = test system: WM1716
[13] = test system: WM1745
[14] = test system: WM3526
[15] = test system: WM3619
[16] = test system: WM451Lu

SMILES: CC(=O)c1c(C)c2cnc(Nc3ccc(N4CCNCC4)cn3)nc2n(C2CCCC2)c1=O [palbociclib] + O=C(O)c1ccc(-c2c[nH]c3ncc(-c4ccccc4)cc23)cc1C1CCCC1 [GSK650394] (first compound 0.04 µM, partner dose 0.16 µM)
- cleaved PARP positive nuclei fraction [1]: 102%
- cleaved PARP positive nuclei fraction [2]: 27.7%
- cleaved PARP positive nuclei fraction [3]: 107%
- cleaved PARP positive nuclei fraction [4]: 70.7%
- cleaved PARP positive nuclei fraction [5]: 253%
- cleaved PARP positive nuclei fraction [6]: 159%
- cleaved PARP positive nuclei fraction [7]: 71.4%
- cleaved PARP positive nuclei fraction [8]: 136%
- cleaved PARP positive nuclei fraction [9]: 32.8%
- cleaved PARP positive nuclei fraction [10]: 93%
- cleaved PARP positive nuclei fraction [11]: 32.3%
- cleaved PARP positive nuclei fraction [12]: 180%
- cleaved PARP positive nuclei fraction [13]: 116%
- cleaved PARP positive nuclei fraction [14]: 75.8%
- cleaved PARP positive nuclei fraction [15]: 109%
- cleaved PARP positive nuclei fraction [16]: 81%

SMILES: OCc1c[nH]c2ccccc12 [Indole-3-carbinol] + CN(NC(=O)CC(=O)NN(C)C(=S)c1ccccc1)C(=S)c1ccccc1 [STA4783] (first compound 0.8 µM, partner dose 0.006 µM)
- cleaved PARP positive nuclei fraction [1]: 27.8%
- cleaved PARP positive nuclei fraction [2]: 27.8%
- cleaved PARP positive nuclei fraction [3]: 59.6%
- cleaved PARP positive nuclei fraction [4]: 161%
- cleaved PARP positive nuclei fraction [5]: 60.8%
- cleaved PARP positive nuclei fraction [6]: 57.6%
- cleaved PARP positive nuclei fraction [7]: 92.7%
- cleaved PARP positive nuclei fraction [8]: 121%
- cleaved PARP positive nuclei fraction [9]: 153%
- cleaved PARP positive nuclei fraction [10]: 48.3%
- cleaved PARP positive nuclei fraction [11]: 146%
- cleaved PARP positive nuclei fraction [12]: 219%
- cleaved PARP positive nuclei fraction [13]: 180%
- cleaved PARP positive nuclei fraction [14]: 75.6%
- cleaved PARP positive nuclei fraction [15]: 144%
- cleaved PARP positive nuclei fraction [16]: 66.4%

SMILES: Cc1ccc(NC(=O)c2cccc(N(C)C)c2)cc1NC(=O)c1ccc(O)cc1 + O=C(Nc1cccc(Cl)c1)Nc1ncc(CCNc2ncnc3ccsc23)s1 [SNS314] (first compound 2 µM, partner dose 0.0008 µM)
- cleaved PARP positive nuclei fraction [1]: 147%
- cleaved PARP positive nuclei fraction [2]: 214%
- cleaved PARP positive nuclei fraction [3]: 138%
- cleaved PARP positive nuclei fraction [4]: 219%
- cleaved PARP positive nuclei fraction [5]: 325%
- cleaved PARP positive nuclei fraction [6]: 65%
- cleaved PARP positive nuclei fraction [7]: 69.7%
- cleaved PARP positive nuclei fraction [8]: 70%
- cleaved PARP positive nuclei fraction [9]: 104%
- cleaved PARP positive nuclei fraction [10]: 69.3%
- cleaved PARP positive nuclei fraction [11]: 204%
- cleaved PARP positive nuclei fraction [12]: 89.2%
- cleaved PARP positive nuclei fraction [13]: 93.3%
- cleaved PARP positive nuclei fraction [14]: 54.6%
- cleaved PARP positive nuclei fraction [15]: 88%
- cleaved PARP positive nuclei fraction [16]: 137%

SMILES: Cn1nnc2c(C(N)=O)ncn2c1=O [temozolomide] + Cc1ccc(NC(=O)c2cccc(N(C)C)c2)cc1NC(=O)c1ccc(O)cc1 [ZM336372] (first compound 2 µM, partner dose 2 µM)
- cleaved PARP positive nuclei fraction [1]: 104%
- cleaved PARP positive nuclei fraction [2]: 149%
- cleaved PARP positive nuclei fraction [3]: 95.6%
- cleaved PARP positive nuclei fraction [4]: 32.6%
- cleaved PARP positive nuclei fraction [5]: 39.2%
- cleaved PARP positive nuclei fraction [6]: 72.1%
- cleaved PARP positive nuclei fraction [7]: 82.6%
- cleaved PARP positive nuclei fraction [8]: 62.7%
- cleaved PARP positive nuclei fraction [9]: 37.6%
- cleaved PARP positive nuclei fraction [10]: 288%
- cleaved PARP positive nuclei fraction [11]: 80.3%
- cleaved PARP positive nuclei fraction [12]: 156%
- cleaved PARP positive nuclei fraction [13]: 89.4%
- cleaved PARP positive nuclei fraction [14]: 106%
- cleaved PARP positive nuclei fraction [15]: 98.7%
- cleaved PARP positive nuclei fraction [16]: 129%

SMILES: COCC[n+]1c2c(n(Cc3cnccn3)c1C)C(=O)c1ccccc1C2=O + C=CCn1c(=O)c2cnc(Nc3ccc(N4CCN(C)CC4)cc3)nc2n1-c1cccc(C(C)(C)O)n1 [MK1775] (first compound 0.0004 µM, partner dose 0.02 µM)
- cleaved PARP positive nuclei fraction [1]: 566%
- cleaved PARP positive nuclei fraction [2]: 143%
- cleaved PARP positive nuclei fraction [3]: 166%
- cleaved PARP positive nuclei fraction [4]: 82%
- cleaved PARP positive nuclei fraction [5]: 60.9%
- cleaved PARP positive nuclei fraction [6]: 107%
- cleaved PARP positive nuclei fraction [7]: 154%
- cleaved PARP positive nuclei fraction [8]: 346%
- cleaved PARP positive nuclei fraction [9]: 185%
- cleaved PARP positive nuclei fraction [10]: 106%
- cleaved PARP positive nuclei fraction [11]: 59.6%
- cleaved PARP positive nuclei fraction [12]: 89.9%
- cleaved PARP positive nuclei fraction [13]: 82.3%
- cleaved PARP positive nuclei fraction [14]: 155%
- cleaved PARP positive nuclei fraction [15]: 117%
- cleaved PARP positive nuclei fraction [16]: 70.6%

SMILES: OCc1c[nH]c2ccccc12 [Indole-3-carbinol] + O=C(Nc1ccccc1)c1cc([N+](=O)[O-])ccc1Cl [GW9662] (first compound 0.8 µM, partner dose 2 µM)
- cleaved PARP positive nuclei fraction [1]: 61.8%
- cleaved PARP positive nuclei fraction [2]: 140%
- cleaved PARP positive nuclei fraction [3]: 198%
- cleaved PARP positive nuclei fraction [4]: 119%
- cleaved PARP positive nuclei fraction [5]: 275%
- cleaved PARP positive nuclei fraction [6]: 72.9%
- cleaved PARP positive nuclei fraction [7]: 73.8%
- cleaved PARP positive nuclei fraction [8]: 69.6%
- cleaved PARP positive nuclei fraction [9]: 67.3%
- cleaved PARP positive nuclei fraction [10]: 31.7%
- cleaved PARP positive nuclei fraction [11]: 110%
- cleaved PARP positive nuclei fraction [12]: 92.7%
- cleaved PARP positive nuclei fraction [13]: 203%
- cleaved PARP positive nuclei fraction [14]: 61.7%
- cleaved PARP positive nuclei fraction [15]: 129%
- cleaved PARP positive nuclei fraction [16]: 99.5%

SMILES: C=CCNC1=C2C[C@@H](C)C[C@H](OC)[C@H](O)[C@@H](C)/C=C(\C)[C@H](OC(N)=O)[C@@H](OC)/C=C\C=C(/C)C(=O)NC(=CC1=O)C2=O [Tanespimycin] + CC(C)(C)c1cnc(CSc2cnc(NC(=O)C3CCNCC3)s2)o1 [SNS-032] (first compound 0.002 µM, partner dose 0.01 µM)
- cleaved PARP positive nuclei fraction [1]: 175%
- cleaved PARP positive nuclei fraction [2]: 75.8%
- cleaved PARP positive nuclei fraction [3]: 88.6%
- cleaved PARP positive nuclei fraction [4]: 312%
- cleaved PARP positive nuclei fraction [5]: 109%
- cleaved PARP positive nuclei fraction [6]: 144%
- cleaved PARP positive nuclei fraction [7]: 58.1%
- cleaved PARP positive nuclei fraction [8]: 69.9%
- cleaved PARP positive nuclei fraction [9]: 112%
- cleaved PARP positive nuclei fraction [10]: 84.4%
- cleaved PARP positive nuclei fraction [11]: 85%
- cleaved PARP positive nuclei fraction [12]: 94.6%
- cleaved PARP positive nuclei fraction [13]: 72.1%
- cleaved PARP positive nuclei fraction [14]: 172%
- cleaved PARP positive nuclei fraction [15]: 82.8%
- cleaved PARP positive nuclei fraction [16]: 72.4%

SMILES: CO[C@@H]1[C@H](N(C)C(=O)c2ccccc2)C[C@H]2O[C@]1(C)n1c3ccccc3c3c4c(c5c6ccccc6n2c5c31)C(=O)NC4 [Midostaurin] + COc1cc2c(Oc3ccc4[nH]c(C)cc4c3F)ncnc2cc1OCCCN1CCCC1 [cediranib] (first compound 0.08 µM, partner dose 0.4 µM)
- cleaved PARP positive nuclei fraction [1]: 79.3%
- cleaved PARP positive nuclei fraction [2]: 236%
- cleaved PARP positive nuclei fraction [3]: 142%
- cleaved PARP positive nuclei fraction [4]: 44.8%
- cleaved PARP positive nuclei fraction [5]: 271%
- cleaved PARP positive nuclei fraction [6]: 257%
- cleaved PARP positive nuclei fraction [7]: 65.2%
- cleaved PARP positive nuclei fraction [8]: 116%
- cleaved PARP positive nuclei fraction [9]: 81.8%
- cleaved PARP positive nuclei fraction [10]: 76.6%
- cleaved PARP positive nuclei fraction [11]: 74.4%
- cleaved PARP positive nuclei fraction [12]: 201%
- cleaved PARP positive nuclei fraction [13]: 107%
- cleaved PARP positive nuclei fraction [14]: 55.1%
- cleaved PARP positive nuclei fraction [15]: 88.2%
- cleaved PARP positive nuclei fraction [16]: 70.9%

SMILES: O=C(Nc1cccc(Cl)c1)Nc1ncc(CCNc2ncnc3ccsc23)s1 + CN(C)S(=O)(=O)c1ccc2c(c1)/C(=C/c1cc3c([nH]1)CCCC3)C(=O)N2 [SU6656] (first compound 0.0008 µM, partner dose 0.4 µM)
- cleaved PARP positive nuclei fraction [1]: 133%
- cleaved PARP positive nuclei fraction [2]: 58.7%
- cleaved PARP positive nuclei fraction [3]: 129%
- cleaved PARP positive nuclei fraction [4]: 63.8%
- cleaved PARP positive nuclei fraction [5]: 138%
- cleaved PARP positive nuclei fraction [6]: 62.9%
- cleaved PARP positive nuclei fraction [7]: 207%
- cleaved PARP positive nuclei fraction [8]: 600%
- cleaved PARP positive nuclei fraction [9]: 69.4%
- cleaved PARP positive nuclei fraction [10]: 182%
- cleaved PARP positive nuclei fraction [11]: 325%
- cleaved PARP positive nuclei fraction [12]: 37.4%
- cleaved PARP positive nuclei fraction [13]: 96.2%
- cleaved PARP positive nuclei fraction [14]: 129%
- cleaved PARP positive nuclei fraction [15]: 75.6%
- cleaved PARP positive nuclei fraction [16]: 238%

SMILES: Nc1cccc2c1CN(C1CCC(=O)NC1=O)C2=O (stereo not given) [lenalidomide] + CO[C@@H]1[C@H](N(C)C(=O)c2ccccc2)C[C@H]2O[C@]1(C)n1c3ccccc3c3c4c(c5c6ccccc6n2c5c31)C(=O)NC4 [Midostaurin] (first compound 1 µM, partner dose 0.08 µM)
- cleaved PARP positive nuclei fraction [1]: 163%
- cleaved PARP positive nuclei fraction [2]: 56.8%
- cleaved PARP positive nuclei fraction [3]: 240%
- cleaved PARP positive nuclei fraction [4]: 94.1%
- cleaved PARP positive nuclei fraction [5]: 120%
- cleaved PARP positive nuclei fraction [6]: 107%
- cleaved PARP positive nuclei fraction [7]: 183%
- cleaved PARP positive nuclei fraction [8]: 38%
- cleaved PARP positive nuclei fraction [9]: 90%
- cleaved PARP positive nuclei fraction [10]: 33.9%
- cleaved PARP positive nuclei fraction [11]: 34.7%
- cleaved PARP positive nuclei fraction [12]: 80.5%
- cleaved PARP positive nuclei fraction [13]: 88.2%
- cleaved PARP positive nuclei fraction [14]: 60%
- cleaved PARP positive nuclei fraction [15]: 121%
- cleaved PARP positive nuclei fraction [16]: 31.5%
